Laboratory results from US20140037624A1.
No constants are given. Whether binding was seen depends on the method and setting. Some results given as binding are weak or reduced against the parent protein; the word gives no strength.

Protein sequences, listed by entry. Tags and fused reporters are not part of them. Lines headed by an entry give the natural chain unless they say otherwise; changes in a name come on top.
UniProt P01027: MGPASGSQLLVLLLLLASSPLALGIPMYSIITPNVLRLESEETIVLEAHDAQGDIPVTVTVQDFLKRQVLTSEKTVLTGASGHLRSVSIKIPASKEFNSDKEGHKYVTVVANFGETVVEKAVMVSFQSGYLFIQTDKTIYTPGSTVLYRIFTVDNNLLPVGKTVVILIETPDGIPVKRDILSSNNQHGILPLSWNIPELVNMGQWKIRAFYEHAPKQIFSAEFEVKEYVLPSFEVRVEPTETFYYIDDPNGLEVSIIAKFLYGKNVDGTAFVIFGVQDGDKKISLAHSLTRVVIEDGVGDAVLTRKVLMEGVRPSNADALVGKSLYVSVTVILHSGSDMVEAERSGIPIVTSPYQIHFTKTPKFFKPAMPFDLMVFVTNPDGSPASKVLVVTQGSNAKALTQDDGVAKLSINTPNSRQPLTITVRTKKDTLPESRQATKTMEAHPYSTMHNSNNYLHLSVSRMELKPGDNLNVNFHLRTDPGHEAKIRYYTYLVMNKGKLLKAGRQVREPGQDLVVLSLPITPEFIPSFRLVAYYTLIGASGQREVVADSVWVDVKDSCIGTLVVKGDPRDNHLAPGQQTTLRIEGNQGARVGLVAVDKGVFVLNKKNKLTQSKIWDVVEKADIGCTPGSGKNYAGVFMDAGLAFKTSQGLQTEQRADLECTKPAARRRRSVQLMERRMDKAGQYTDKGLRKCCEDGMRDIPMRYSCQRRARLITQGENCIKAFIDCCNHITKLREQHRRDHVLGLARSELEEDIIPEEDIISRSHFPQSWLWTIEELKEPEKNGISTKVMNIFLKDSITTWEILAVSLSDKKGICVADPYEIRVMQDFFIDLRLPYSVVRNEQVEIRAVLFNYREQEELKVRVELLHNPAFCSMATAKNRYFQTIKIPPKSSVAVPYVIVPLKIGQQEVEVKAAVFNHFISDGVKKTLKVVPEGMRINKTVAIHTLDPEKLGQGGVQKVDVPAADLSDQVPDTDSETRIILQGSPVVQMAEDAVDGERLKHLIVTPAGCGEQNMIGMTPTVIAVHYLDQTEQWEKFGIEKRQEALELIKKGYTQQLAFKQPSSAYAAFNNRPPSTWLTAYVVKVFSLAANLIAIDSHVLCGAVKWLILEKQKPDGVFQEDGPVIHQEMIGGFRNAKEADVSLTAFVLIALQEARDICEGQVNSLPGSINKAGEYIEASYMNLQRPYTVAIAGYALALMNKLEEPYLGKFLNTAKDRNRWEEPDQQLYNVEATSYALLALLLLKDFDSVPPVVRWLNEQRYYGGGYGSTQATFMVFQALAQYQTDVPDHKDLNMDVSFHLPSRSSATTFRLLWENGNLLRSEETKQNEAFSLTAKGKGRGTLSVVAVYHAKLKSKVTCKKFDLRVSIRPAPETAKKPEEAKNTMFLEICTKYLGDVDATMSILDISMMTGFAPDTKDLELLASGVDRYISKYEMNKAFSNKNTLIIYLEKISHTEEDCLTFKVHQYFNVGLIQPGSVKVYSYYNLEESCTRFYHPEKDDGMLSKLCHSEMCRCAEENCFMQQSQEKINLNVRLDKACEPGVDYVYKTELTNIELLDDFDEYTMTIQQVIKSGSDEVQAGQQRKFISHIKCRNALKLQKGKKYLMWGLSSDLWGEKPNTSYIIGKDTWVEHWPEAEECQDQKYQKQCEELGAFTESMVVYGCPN

Key:
[1] = target: mouse complement C3 (ca. 37 kDa fragment, C3d, from mouse plasma) (mouse) (UniProt P01027); assay: immunoprecipitation from NCR nude mouse plasma, SDS-PAGE (FIG. 13B)
[2] = target: mouse complement C3 (ca. 37 kDa fragment, C3d, from mouse plasma) (mouse) (UniProt P01027); assay: protein-G pull-down from serum of dosed mice, SDS-PAGE (FIG. 16D)
[3] = target: mouse complement C3 (ca. 37 kDa fragment, C3d, from mouse plasma) (mouse) (UniProt P01027); assay: immunoprecipitation from mouse plasma, SDS-PAGE, band identified by MS/MS as derived from mouse complement C3
[4] = target: mouse complement C3 (ca. 37 kDa fragment, C3d, from mouse plasma) (mouse) (UniProt P01027); assay: size-exclusion HPLC fractions, protein-G pull-down, SDS-PAGE; MS/MS coverage of mouse C3 (FIG. 12C, 12D)
[5] = target: T1, human FGFR4 (recombinant, construct not stated; SPR, FGFR4 ELISA, receptor-binding assay) (human) (UniProt P22455); assay: FGFR4 ELISA, FGFR4 immobilized
T1 sequence: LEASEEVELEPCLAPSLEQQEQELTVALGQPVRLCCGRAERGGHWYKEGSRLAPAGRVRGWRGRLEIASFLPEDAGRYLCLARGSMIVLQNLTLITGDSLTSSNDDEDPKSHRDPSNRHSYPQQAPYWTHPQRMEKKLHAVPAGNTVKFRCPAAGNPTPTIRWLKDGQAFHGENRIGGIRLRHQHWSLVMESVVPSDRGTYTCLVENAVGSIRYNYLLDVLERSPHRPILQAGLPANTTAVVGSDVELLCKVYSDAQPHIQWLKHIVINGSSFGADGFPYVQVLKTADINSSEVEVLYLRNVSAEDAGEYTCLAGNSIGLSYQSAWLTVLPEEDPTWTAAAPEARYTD

[6] = target: mouse complement C3 (ca. 37 kDa fragment, C3d, from mouse plasma) (mouse) (UniProt P01027); assay: immunoprecipitation from NCR nude mouse plasma, SDS-PAGE
[7] = target: mouse complement C3 (ca. 37 kDa fragment, C3d, from mouse plasma) (mouse) (UniProt P01027); assay: immunoprecipitation from mouse plasma, MS/MS
[8] = target: mouse complement C3 (ca. 37 kDa fragment, C3d, from mouse plasma) (mouse) (UniProt P01027); assay: size-exclusion HPLC of 125I-hLD1.vB in mouse plasma (axis 10 to 20, unit not given); partner named by the filing through the pull-down of FIG. 12C
[9] = target: T1, human FGFR4 (recombinant, construct not stated; SPR, FGFR4 ELISA, receptor-binding assay) (human); assay: FGFR4 ELISA (immobilized FGFR4), O.D. 450 nm against IgG concentration
[10] = target: mouse complement C3 (ca. 37 kDa fragment, C3d, from mouse plasma) (mouse) (UniProt P01027); assay: protein-G pull-down from serum of mice 2 h after dosing, SDS-PAGE
[11] = target: mouse complement C3 (ca. 37 kDa fragment, C3d, from mouse plasma) (mouse) (UniProt P01027); assay: size-exclusion HPLC of 125I-antibody incubated in mouse plasma; the filing finds the ca. 37 kDa C3 fragment in the fractions of the 270 kDa peak (FIG. 12C)
[12] = target: mouse complement C3 (ca. 37 kDa fragment, C3d, from mouse plasma) (mouse) (UniProt P01027); assay: protein-G pull-down from size-exclusion fractions of mouse plasma incubated with antibody, SDS-PAGE, Coomassie
[13] = target: T1, human FGFR4 (recombinant, construct not stated; SPR, FGFR4 ELISA, receptor-binding assay) (human); assay: surface plasmon resonance
[14] = target: mouse complement C3 (ca. 37 kDa fragment, C3d, from mouse plasma) (mouse) (UniProt P01027); assay: size-exclusion HPLC of serum from mice dosed with 125I-hLD1.vB (axis 15 to 25, unit not given); partner named by the filing through the pull-down of FIG. 16D

Measured: binding

B1: hLD1.vB (humanized LD1 with light chain P44F, L46I, Y49S) (antibody, V domains shown)
VH: EVQLVESGGGLVQPGGSLRLSCAASGYTFTNHWMNWVRQAPGKGLEWVGMIHPSDSETTLDQKFKDRFTISADTSKNTAYLQMNSLRAEDTAVYYCTRGDISLFDYWGQGTLVTVSS
VL: DIQMTQSPSSLSASVGDRVTITCRTSQDISNFLNWYQQKPGKAFKILISYTSRLHSGVPSRFSGSGSGTDFTLTISSLQPEDFATYYCQQGNALPYTFGQGTKVEIK
binds: all assays above

B2: hLD1.v22 (humanized and affinity matured LD1) (antibody, V domains shown)
VH: EVQLVESGGGLVQPGGSLRLSCAASGYTFTNHWMNWVRQAPGKGLEWVGMILPVDSETTLEQKFKDRFTISADTSKNTAYLQMNSLRAEDTAVYYCTRGDISLFDYWGQGTLVTVSS
VL: DIQMTQSPSSLSASVGDRVTITCRTSQDISNFLNWYQQKPGKAFKILISYTSRLHSGVPSRFSGSGSGTDFTLTISSLQPEDFATYYCQQGNALPYTFGQGTKVEIKR
binds: [13]
